Test results published in US20160297892A1.
Positions count from the first letter of the chain named. Results are given in words; binding and its absence hold for the method and conditions named. Some binding calls cover weakened binding; strength is not graded here. One block for each binder: values may come before it.

Columns and labels:
[1] = target: EGF domain 1 and 2 of recombinant human Protein S (human) (UniProt P07225); assay: ELISA, calcium-free TBS
[2] = target: T1, Gla-domain deleted recombinant cynomolgus Protein S (cynomolgus monkey (Macaca fascicularis)); assay: ELISA, calcium-free TBS
T1 sequence: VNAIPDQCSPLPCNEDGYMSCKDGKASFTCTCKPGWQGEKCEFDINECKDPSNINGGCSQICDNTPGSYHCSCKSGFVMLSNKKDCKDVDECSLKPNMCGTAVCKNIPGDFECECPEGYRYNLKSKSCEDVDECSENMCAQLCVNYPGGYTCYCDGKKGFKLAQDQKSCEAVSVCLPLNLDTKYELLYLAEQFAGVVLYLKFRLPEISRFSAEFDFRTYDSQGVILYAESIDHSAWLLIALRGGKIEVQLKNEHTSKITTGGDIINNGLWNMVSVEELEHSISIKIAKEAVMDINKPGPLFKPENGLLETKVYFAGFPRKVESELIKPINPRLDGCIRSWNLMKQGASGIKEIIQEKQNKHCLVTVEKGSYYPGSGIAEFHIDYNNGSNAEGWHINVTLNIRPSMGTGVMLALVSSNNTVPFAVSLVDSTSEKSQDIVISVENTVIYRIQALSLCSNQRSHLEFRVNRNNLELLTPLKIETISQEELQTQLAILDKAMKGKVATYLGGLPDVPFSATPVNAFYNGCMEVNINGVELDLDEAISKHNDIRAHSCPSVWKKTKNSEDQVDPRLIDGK

[3] = target: EGF domain 1 and 2 of recombinant human Protein S (human) (UniProt P07225); assay: ELISA, recombinant antibody
[4] = target: T1, Gla-domain deleted recombinant cynomolgus Protein S (cynomolgus monkey (Macaca fascicularis)); assay: ELISA, recombinant antibody

B1: M-hProtS-2F382A1 monoclonal antibody (antibody, mouse IgG1, V domains shown)
VH: EVKLEESGGGLVQPGGSMKLSCAASGFTFSDAWMGWVRQSPEKGLEWVAEIRGKANNHATYYSESVKGRFTISRDDSKSSVYLQMNSLRAEDTGIFYCCLITAFLFDYWGQGTTLTVSS
VL: QIVLTQSPAIMSASPGEKVTMTCSGRSSENYMYWYQQKPGSPPRLWIYDTSNLVSGVPARFSGSRSGTSYSLTISSMEAEDAATYYCQQFNGYPYTFGGGTKLEIRR
binding [1]: binds
binding [2]: binds

B2: M-hProtS-3F38A2 monoclonal antibody (antibody, mouse IgG1, V domains shown)
VH: EVLLQQSGPELVKPGASVKIPCKASGYTFTDYNMDWVKQSHGKSLEWIGDINPNNGDTFYNQKFKGKATLTVDKSSSTAYMELRSLTSEDTAVYYCARSEIFTTAPDYGMGYWGQGTSVTVSS
VL: ENVLTQSPAIMSASPGEKVTMTCRASSSVSSSYLHWYQQRSGASPKLWIYGTSNLASGVPARFSGSGSGTSYSLTISSVEAEDAATYYCQQYSGYPRTFGGGTKLEIKR
binding [2]: binds

B3: M-hProtS-3F62A5 monoclonal antibody (antibody, mouse IgG1, V domains shown)
VH: B2 VH with P21T, N52D, D57G, F59I, K63E, K65T, K74T, A97V, M110V, G111D
VL: B2 VL with Q38R, R40K, G51S, S78R, L105V
binding [2]: binds

B4: M-hProtS-3F2A1 monoclonal antibody (antibody, V domains shown)
VH: EVQLQESGPSLVKPSQTLSLTCSVTGDSITSGYWNWIRKFPGNKLEYMGYISFSGSTYYNPSLKSRISITRDTSKNQYYLQLNSVTTEDTATYYCAREFAYWGQGTLVTVSA
VL: DIVLTQSPATLSVTPGDSVSLSCRASQSISNNLHWYQQKSHESPRLLIKFVSQSISGIPSRFSGSGSGTDFTLSINSVETEDFGMYFCQQSNSWPWTFGGGTKLEIKR
binding [1]: binds
binding [2]: binds
binding [3]: binds
binding [4]: binds

B6: M-hProtS-2F380A1 monoclonal antibody (antibody, mouse IgG1, V domains shown)
VH: EVKLEESGGGLVQPGGSMKLSCAASGFTFSDAWMDWVRQSPEKGLEWVAEVRSKADNHATYYAESVKGRFTISRDDSKSAVYLQMNSLRPEDTGIYYCTLTTAFLFDSWGQGTTLTVSS
VL: QIALTQSPAIMSASPGEKVTMTCSVNSSVSYMHWYQQKPGSSPRLWIYDTSNLVSGVPGRFSGSGSGTSYSLTLSSMEAEDAATYYCQQYSGYLYTFGGGTKLEIKR
binding [1]: binds
binding [2]: binds

B7: M-hProtS-2F4A1 monoclonal antibody (antibody, V domains shown)
VH: B6 VH with V51I, D56N, A80G, S108Y
VL: B6 VL with N26S
binding [1]: binds
binding [2]: binds
binding [3]: binds
binding [4]: binds

B8: M-hProtS-6F216A3 (mAb 0914) monoclonal antibody (antibody, V domains shown)
VH: QVQLQQPGAELVRPGASVKLSCKASGYTFTSYWINWVKQRPEQGLEWIGRIDPYDSETHYNQKFKDKAILTVDKSSSTAYMQLSSLTSEDSAVYYCARWGGSGYAMDYWGQGTSVTVSS
VL: QIVLSQSPAILSASPGEKVTMTCRASSSVSYMYWYQQKPGSSPKPWIYATSNLASGVPARFSGSGSGTSYSLTISRVEAEDAATYYCQQWSSIPPTFGGGTKLEIKR
binding [1]: binds
binding [2]: binds
binding [3]: binds
binding [4]: binds

Next, values leading:

binding [2]: binds
binding [4]: binds
B5: M-hProtS-6F138A3 monoclonal antibody (antibody, V domains shown)
VH: QVHLKESGPGLVAPSQNLSITCTVSGFSLTGYGVSWVRQPPGKGLEWLGMIWGDGTTDYNSTLKSRLSISKDNSKSQVFLKMNSLQIDDTARYYCARDPGAMDYWGQGTSVTVSS
VL: QIVLTQSPAIMSASPGEKVTITCSATSSVTYMHWFQQKPGTSPKLWIFSTSNLASGVPPRFSGSGSGTSYSLTISRMEAEDAATYYCQQRSSYPPTFGGGTKLEIKR

binding [1]: binds
binding [2]: binds
B9: M-hProtS-6F128A2 monoclonal antibody (antibody, mouse IgG1, V domains shown)
VL: SIVMTQTPKFLLVSAGDRVTITCKASQSVSNDVAWYQQKPGQSPKLLIYYASNRYTGVPDRFTGSGYGTDFTFTISTVQAEDLAVYFCQQDYSSPYTFGGGTKLEIKR
V domain: B8 VH with V115A

binding [2]: binds
B10: M-hProtS-6F153A2 monoclonal antibody (antibody, mouse IgG1, V domains shown)
VH: QIQLVQSGPELKKPGETVKISCKASGYTFSDYSMHWVKQTPGEGLKWMGWMNTGTGEPTYADDFKGRFAFSLETSATTAHLQINNLKNEDTATYFCARRLYYGTGLAYWGQGTLVTVSA
VL: DIVMTQSHKFMSTSVGDRVSITCKASQDVSTGVAWYQQKPGQSPKLLIFSASSRYSGVPDRFTGSGSGTDFTFTISSVQAEDLAVYYCQQHYSSPRTFGGGTKLEIKR
